Results on one molecule are retold here after US12428650B2, “Corn event 5307” (priority 2008, dated 2025).

This data set is described as follows: PMI quantification by ELISA in event 5307 plant tissues. The following applies: event 5307 plants. Also noted: species or system Zea mays.

B1: PMI: phosphomannose isomerase enzyme, selectable marker allowing the plant to utilize mannose (protein, UniProt P00946 1-391, looked up)
Mannose-6-phosphate isomerase: MQKLINSVQNYAWGSKTALTELYGMENPSSQPMAELWMGAHPKSSSRVQNAAGDIVSLRDVIESDKSTLLGEAVAKRFGELPFLFKVLCAAQPLSIQVHPNKHNSEIGFAKENAAGIPMDAAERNYKDPNHKPELVFALTPFLAMNAFREFSEIVSLLQPVAGAHPAIAHFLQQPDAERLSELFASLLNMQGEEKSRALAILKSALDSQQGEPWQTIRLISEFYPEDSGLFSPLLLNVVKLNPGEAMFLFAETPHAYLQGVALEVMANSDNVLRAGLTPKYIDIPELVANVKFEAKPANQLLTQPVKQGAELDFPIPVDDFAFSLHDLSDKETTISQQSAAILFCVEGDATLWKGSQQLQLKPGESAFIAANESPVTVKGHGRLARVYNKL
As for B1, the “mean PMI level in leaves” value (across all plant stages, leaves, dry wt.) is recorded as 1.5-2.3 μg/g dry wt. In addition, the “mean PMI level in roots” value runs as follows: (across all plant stages, dry wt.) 0.9-1.5 μg/g dry wt; (across all plant stages, fresh wt.) 0.1-0.2 μg/g fresh wt. Besides, the “mean PMI level in pollen” value is, setting by setting: (dry wt.) 17.1-31.1 μg/g dry wt; (fresh wt.) 16.7-30.6 μg/g fresh wt.
